According to PMC11322666:
Where a chain is given by its changes, count along the chain named. No constants are given. Whether binding was seen depends on the method and setting. Binding seen in cells or lysates may run through a third protein. Some binding calls cover weakened binding; strength is not graded here. Tags and fused reporters may be left off the sequences shown.

Chains of the proteins cited; added tags and fusions are not shown. Lines headed by an entry give the natural chain unless they say otherwise; changes in a name come on top.
UniProt O75460: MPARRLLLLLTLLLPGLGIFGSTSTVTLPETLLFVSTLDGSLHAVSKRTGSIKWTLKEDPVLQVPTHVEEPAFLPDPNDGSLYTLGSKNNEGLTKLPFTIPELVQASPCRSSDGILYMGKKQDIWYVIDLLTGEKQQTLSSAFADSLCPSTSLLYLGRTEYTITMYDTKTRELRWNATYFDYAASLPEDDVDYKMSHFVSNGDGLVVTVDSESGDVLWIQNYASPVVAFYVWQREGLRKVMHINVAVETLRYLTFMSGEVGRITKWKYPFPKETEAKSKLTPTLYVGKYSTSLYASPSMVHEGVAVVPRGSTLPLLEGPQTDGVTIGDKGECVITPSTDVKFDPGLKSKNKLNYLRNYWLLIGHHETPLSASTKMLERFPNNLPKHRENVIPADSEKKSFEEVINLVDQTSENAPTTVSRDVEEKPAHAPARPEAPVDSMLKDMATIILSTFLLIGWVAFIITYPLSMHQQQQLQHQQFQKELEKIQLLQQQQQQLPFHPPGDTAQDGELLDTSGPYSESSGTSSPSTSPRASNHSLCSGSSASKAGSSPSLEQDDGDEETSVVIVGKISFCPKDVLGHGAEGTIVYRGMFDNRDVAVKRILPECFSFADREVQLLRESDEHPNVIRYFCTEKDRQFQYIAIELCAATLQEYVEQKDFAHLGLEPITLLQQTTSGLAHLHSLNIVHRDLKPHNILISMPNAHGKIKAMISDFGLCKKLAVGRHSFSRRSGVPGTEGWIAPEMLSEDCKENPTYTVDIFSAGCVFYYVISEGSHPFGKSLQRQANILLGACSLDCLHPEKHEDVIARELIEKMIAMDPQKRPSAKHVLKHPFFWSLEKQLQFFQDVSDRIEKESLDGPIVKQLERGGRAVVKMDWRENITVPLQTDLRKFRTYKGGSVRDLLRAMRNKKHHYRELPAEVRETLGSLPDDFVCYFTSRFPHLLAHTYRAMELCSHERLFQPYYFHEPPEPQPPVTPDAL
UniProt Q9HAU5: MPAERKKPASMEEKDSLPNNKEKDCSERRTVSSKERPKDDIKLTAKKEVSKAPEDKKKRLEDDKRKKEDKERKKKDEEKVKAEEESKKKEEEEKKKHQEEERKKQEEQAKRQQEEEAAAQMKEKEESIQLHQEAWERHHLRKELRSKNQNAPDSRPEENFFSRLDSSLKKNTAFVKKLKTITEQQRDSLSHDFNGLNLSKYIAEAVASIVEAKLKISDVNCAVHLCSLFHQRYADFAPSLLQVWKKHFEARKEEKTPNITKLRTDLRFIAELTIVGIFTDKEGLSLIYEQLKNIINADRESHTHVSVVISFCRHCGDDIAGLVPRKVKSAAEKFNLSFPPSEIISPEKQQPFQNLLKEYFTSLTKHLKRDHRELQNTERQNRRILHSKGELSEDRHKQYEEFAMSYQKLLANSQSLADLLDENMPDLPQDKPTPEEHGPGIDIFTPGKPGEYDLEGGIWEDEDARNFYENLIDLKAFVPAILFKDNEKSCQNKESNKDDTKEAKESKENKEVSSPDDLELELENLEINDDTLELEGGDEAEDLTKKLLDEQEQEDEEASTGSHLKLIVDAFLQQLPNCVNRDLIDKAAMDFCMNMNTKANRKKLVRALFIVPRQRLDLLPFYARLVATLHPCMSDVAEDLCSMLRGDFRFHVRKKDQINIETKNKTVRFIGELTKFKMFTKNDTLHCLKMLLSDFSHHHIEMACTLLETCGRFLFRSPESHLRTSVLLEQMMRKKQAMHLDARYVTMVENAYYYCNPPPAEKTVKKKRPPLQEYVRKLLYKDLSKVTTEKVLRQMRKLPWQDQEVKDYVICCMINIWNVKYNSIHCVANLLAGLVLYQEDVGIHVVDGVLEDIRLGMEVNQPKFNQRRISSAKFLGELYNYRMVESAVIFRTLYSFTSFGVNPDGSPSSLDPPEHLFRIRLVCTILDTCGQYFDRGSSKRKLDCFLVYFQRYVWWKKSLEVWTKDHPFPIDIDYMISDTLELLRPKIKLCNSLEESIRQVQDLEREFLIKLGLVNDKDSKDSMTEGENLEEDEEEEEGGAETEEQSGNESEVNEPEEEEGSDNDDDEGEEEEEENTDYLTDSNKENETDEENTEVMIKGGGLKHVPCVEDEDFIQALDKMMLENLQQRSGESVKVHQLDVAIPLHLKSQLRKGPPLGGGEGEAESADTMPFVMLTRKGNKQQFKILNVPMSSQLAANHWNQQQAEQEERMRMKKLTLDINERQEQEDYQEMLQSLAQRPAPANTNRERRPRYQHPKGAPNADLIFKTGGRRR

What was measured:
[1] = target: T1, GST-UPF3B fusion protein (human) (UniProt Q9BZI7); assay: pull-down; GST fusion protein from Rosetta cells on Glutathione Sepharose beads, incubated with HEK293T lysate for 4 h at 4 °C, washed three times with RIPA buffer, western blot with anti-Flag or anti-GST; only the target purified
T1 sequence: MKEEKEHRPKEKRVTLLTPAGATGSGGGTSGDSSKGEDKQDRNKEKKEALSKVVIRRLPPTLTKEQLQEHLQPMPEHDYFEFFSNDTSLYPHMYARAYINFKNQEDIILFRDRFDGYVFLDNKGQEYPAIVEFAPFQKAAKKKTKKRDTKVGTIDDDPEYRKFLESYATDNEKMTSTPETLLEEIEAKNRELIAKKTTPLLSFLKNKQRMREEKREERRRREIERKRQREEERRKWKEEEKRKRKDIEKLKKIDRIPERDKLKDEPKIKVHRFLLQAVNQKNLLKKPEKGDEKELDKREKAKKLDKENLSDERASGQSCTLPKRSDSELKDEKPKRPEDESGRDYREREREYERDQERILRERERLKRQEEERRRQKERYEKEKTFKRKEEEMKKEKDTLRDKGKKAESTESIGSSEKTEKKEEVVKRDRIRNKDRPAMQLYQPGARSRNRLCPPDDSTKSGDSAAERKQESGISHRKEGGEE

[2] = target: T2, UPF3B^WT, Flag tagged (human) (UniProt Q9BZI7); assay: co-IP; HEK293T cells with gradient overexpression of UPF2 MIF4G-3 plasmid for 24 h, lysates immunoprecipitated by anti-Flag antibody
T2 sequence: T1 sequence

[3] = target: T3, UPF3B^Y160F, Flag tagged (human) (UniProt Q9BZI7); assay: co-IP; lysates of transfected HEK293T or U2OS cells (24 h) in NETN buffer (20 mM Tris-HCl pH 8.0, 100 mM NaCl, 1 mM EDTA, 0.5% NP-40), IP with anti-Flag (M2) magnetic beads or the indicated antibodies, western blot; Fig. 3G two-way
T3 sequence: T1 sequence with Y160F

[4] = target: T4, UPF3B^T197D, Flag tagged (human) (UniProt Q9BZI7); assay: as above
T4 sequence: T1 sequence with T197D

[5] = target: T5, UPF3B^T198D, Flag tagged (human) (UniProt Q9BZI7); assay: as above
T5 sequence: T1 sequence with T198D

[6] = target: T2, UPF3B^WT, Flag tagged (human); assay: as above
[7] = target: T6, UPF3B^T169A, Flag tagged (human) (UniProt Q9BZI7); assay: as above
T6 sequence: T1 sequence with T169A

[8] = target: T7, UPF3B^T197A, Flag tagged (human) (UniProt Q9BZI7); assay: as above
T7 sequence: T1 sequence with T197A

[9] = target: T8, UPF3B^T198A, Flag tagged (human) (UniProt Q9BZI7); assay: as above
T8 sequence: T1 sequence with T198A

Measured: binding

IRE1α^K-Flag (from UniProt O75460 571-832) (domain or fragment)
binds: [1]

UPF2 MIF4G-3 segment (from UniProt Q9HAU5 773-986) (domain or fragment)
binds: [2]

UPF2, endogenous (from UniProt Q9HAU5 1-1272)
binds: [3] | [4] | [5] | [6]

inositol-requiring enzyme-1α (IRE1α), endogenous (from UniProt O75460 19-977)
not listed: [1]
binds: all other assays above
